Source: paper PMC4551966
Results are given in words; binding and its absence hold for the method and conditions named. For some assays here: A result given as binding can be weak or reduced; the word gives no strength. Tags and fused reporters may be left off the sequences shown.

How the values were obtained:
Test in all cases: two-hybrid; Matchmaker Gal4 system (Clontech), yeast AH109 co-transformed with bait in pGBKT7 and prey in pGADT7; selection on plates lacking adenine, histidine, leucine and tryptophan with X-α-Gal; α-galactosidase activity
[1] = biological target: CVB3 VP1 truncation segment 3-197 in pGBKT7 (Coxsackievirus B3 (CVB3))
[2] = biological target: CVB3 VP1 residues 3-284 fused to the GAL4 DNA-binding domain (pGBKT7-VP1) (Coxsackievirus B3 (CVB3))
[3] = biological target: CVB3 VP1 truncation segment 126-284 in pGBKT7 (Coxsackievirus B3 (CVB3))
[4] = biological target: CVB3 VP1 truncation segment 61-284 in pGBKT7 (Coxsackievirus B3 (CVB3))

B1: human GM130 (C-terminal 199 amino acids) fused to the GAL4 activation domain (pGADT7-GM130) (domain or fragment, UniProt Q08379 804-1002)
chain: AMEKLQSRFMELMQEKADLKERVEELEHRCIQLSGETDTIGEYIALYQSQRAVLKERHREKEEYISRLAQDKEEMKVKLLELQELVLRLVGDRNEWHGRFLAAAQNPADEPTSGAPAPQELGAANQQGDLCEVSLAGSVEPAQGEAREGSPRDNPTAQQIMQLLREMQNPRERPGLGSNPCIPFFYRADENDEVKITVI
binding [1]: no binding | binding [2]: binds | binding [3]: no binding | binding [4]: binds

B2: GM130 truncation segment 914-1002 in pGADT7 (domain or fragment, UniProt Q08379 914-1002)
chain: PTSGAPAPQELGAANQQGDLCEVSLAGSVEPAQGEAREGSPRDNPTAQQIMQLLREMQNPRERPGLGSNPCIPFFYRADENDEVKITVI
binding [2]: binds

B3: GM130 truncation segment 809-963 in pGADT7 (domain or fragment, UniProt Q08379 809-963)
chain: QSRFMELMQEKADLKERVEELEHRCIQLSGETDTIGEYIALYQSQRAVLKERHREKEEYISRLAQDKEEMKVKLLELQELVLRLVGDRNEWHGRFLAAAQNPADEPTSGAPAPQELGAANQQGDLCEVSLAGSVEPAQGEAREGSPRDNPTAQQI
binding [2]: no binding

B4: GM130 truncation segment 850-987 in pGADT7 (domain or fragment, UniProt Q08379 850-987)
chain: YQSQRAVLKERHREKEEYISRLAQDKEEMKVKLLELQELVLRLVGDRNEWHGRFLAAAQNPADEPTSGAPAPQELGAANQQGDLCEVSLAGSVEPAQGEAREGSPRDNPTAQQIMQLLREMQNPRERPGLGSNPCIPF
binding [2]: no binding

MQLLREMQNPRERPGLGSNPCIPFFYRADENDEVKITVI (domain or fragment, UniProt Q08379 964-1002) [GM130 truncation segment 964-1002 in pGADT7]
binding [2]: no binding
